Holding throughout (test): DAPPL (digital affinity profiling via proximity ligation, sequencing)
Common to all, as to settings: 10 mM Tris-HCl pH 7.5, 50 mM NaCl, 1 mM DTT, 4% glycerol, room temperature, 30 min; GST-TFs on glutathione beads, 16-mer random dsDNA library, 0.1% …; high values mean tight binding; double strand, one strand shown; scale: fold enrichment (6-mer frequency, TF over GST control)

The target in one experiment is T1, ELK1 (UniProt P19419).
T1 sequence: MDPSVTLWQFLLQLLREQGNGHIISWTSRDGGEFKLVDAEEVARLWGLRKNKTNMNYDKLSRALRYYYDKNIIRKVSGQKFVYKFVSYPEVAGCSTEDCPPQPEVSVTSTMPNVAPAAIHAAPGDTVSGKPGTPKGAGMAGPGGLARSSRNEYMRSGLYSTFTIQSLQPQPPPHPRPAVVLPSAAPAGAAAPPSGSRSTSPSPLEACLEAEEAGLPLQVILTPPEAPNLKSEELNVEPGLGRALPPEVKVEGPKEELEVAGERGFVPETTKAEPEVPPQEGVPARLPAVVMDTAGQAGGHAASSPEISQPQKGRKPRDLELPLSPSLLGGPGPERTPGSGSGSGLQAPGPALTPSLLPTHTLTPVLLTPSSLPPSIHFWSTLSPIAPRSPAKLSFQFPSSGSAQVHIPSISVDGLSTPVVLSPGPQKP

The target of a further experiment is T2, SPIC (UniProt Q8N5J4).
T2 sequence: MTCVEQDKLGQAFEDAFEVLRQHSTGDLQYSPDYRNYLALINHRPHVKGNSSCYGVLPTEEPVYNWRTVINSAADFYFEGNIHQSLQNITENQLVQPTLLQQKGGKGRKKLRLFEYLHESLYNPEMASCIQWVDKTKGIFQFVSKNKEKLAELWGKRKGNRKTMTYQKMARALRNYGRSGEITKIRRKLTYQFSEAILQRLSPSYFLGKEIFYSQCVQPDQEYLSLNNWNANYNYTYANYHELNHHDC

The target of a further experiment is T3, ETS2 (UniProt P15036).
T3 sequence: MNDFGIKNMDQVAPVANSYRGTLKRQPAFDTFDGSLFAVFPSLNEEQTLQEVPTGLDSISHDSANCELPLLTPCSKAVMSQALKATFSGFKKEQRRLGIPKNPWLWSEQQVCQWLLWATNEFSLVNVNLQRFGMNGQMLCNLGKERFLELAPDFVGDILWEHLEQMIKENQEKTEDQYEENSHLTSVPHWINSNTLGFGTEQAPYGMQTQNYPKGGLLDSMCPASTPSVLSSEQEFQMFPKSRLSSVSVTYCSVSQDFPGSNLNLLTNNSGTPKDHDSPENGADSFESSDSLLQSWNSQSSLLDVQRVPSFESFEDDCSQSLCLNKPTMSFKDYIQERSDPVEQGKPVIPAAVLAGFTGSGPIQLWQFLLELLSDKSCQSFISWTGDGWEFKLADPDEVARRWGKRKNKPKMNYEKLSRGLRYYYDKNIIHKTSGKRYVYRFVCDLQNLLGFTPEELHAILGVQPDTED

Another experiment addresses T4, ETV3 (UniProt P41162-2).
T4 sequence: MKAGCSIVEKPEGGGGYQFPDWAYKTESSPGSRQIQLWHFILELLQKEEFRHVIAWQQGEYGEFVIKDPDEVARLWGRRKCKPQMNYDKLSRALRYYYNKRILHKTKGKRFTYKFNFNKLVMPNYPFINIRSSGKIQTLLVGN

The target in another experiment is T5, ELK3 (UniProt P41970).
T5 sequence: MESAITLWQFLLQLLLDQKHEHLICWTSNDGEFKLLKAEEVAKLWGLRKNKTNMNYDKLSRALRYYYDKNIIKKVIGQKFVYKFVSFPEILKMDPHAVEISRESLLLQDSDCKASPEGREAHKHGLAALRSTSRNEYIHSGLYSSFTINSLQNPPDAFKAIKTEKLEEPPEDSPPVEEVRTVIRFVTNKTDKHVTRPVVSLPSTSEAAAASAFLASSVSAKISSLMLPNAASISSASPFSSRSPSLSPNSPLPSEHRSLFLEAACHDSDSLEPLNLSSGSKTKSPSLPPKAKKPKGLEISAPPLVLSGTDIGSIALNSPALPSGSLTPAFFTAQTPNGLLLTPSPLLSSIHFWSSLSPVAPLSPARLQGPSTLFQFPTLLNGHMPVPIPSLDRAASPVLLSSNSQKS

The list shows a part of the results, in another mix than the full data. At the low end of the ranking the order means little.

As to GACTCA, the binding signal with ELK1 is 0.994; with SPIC, 0.915; with ETS2 it was 0.956; with ETV3, 0.938.
For GAGTAC, the binding signal with ELK1 amounted to 0.546; with ELK3, 0.553; with SPIC it was 0.538; in the experiment with ETS2, 0.52; in the experiment with ETV3 it was 0.58.
Take GCGCTA: the binding signal was determined as 0.977 with ELK1, 0.991 with SPIC, 0.985 with ETS2 and 0.917 with ETV3.
The corresponding values for CGAGCG are 0.912, 0.998, 0.918 and 0.961.
Take CACAGG: the binding signal with ELK1 was found to be 0.911; in the experiment with ELK3, 0.874; with SPIC it was 0.807; in the experiment with ETS2 it was 0.912; with ETV3, 0.907.
The corresponding values for AAGGAC are 0.876, 0.849, 0.835, 0.796 and 0.909.
Regarding AGTCAT, the binding signal with ELK1 is 0.566; with ELK3, 0.593; in the experiment with SPIC, 0.567; with ETS2, 0.574; with ETV3 it was 0.566.
With AGGACG, the binding signal is 0.43 with ELK1; 0.501 in the experiment with ELK3; 0.483 with SPIC; 0.495 with ETS2; 0.489 with ETV3.
On the same counts, the results for GGTGAC are 0.908, 0.684, 0.772, 0.792 and 0.784.
With GAGCAG, the binding signal was 0.599 in the experiment with ELK1; 0.687 with ELK3; 0.593 with SPIC; 0.633 in the experiment with ETS2; 0.588 with ETV3.
The corresponding values for CGGACA are 0.765, 0.738, 0.668, 0.788 and 0.817.
Turning to AGTCAG, the binding signal came out at 0.51 with ELK1; 0.512 in the experiment with ELK3; 0.504 in the experiment with SPIC; 0.514 with ETS2; 0.499 in the experiment with ETV3.
On to AGGCCA, for which the binding signal with ELK1 is 0.622; in the experiment with ELK3 it was 0.683; in the experiment with SPIC, 0.712; with ETS2, 0.653; with ETV3, 0.605.
Consider CGAGAG, for which the binding signal was 0.426 with ELK1; 0.417 in the experiment with ELK3; 0.338 with SPIC; 0.385 in the experiment with ETS2; 0.4 with ETV3.
Consider AGGTTG, for which the binding signal with ELK1 came to 0.78; in the experiment with ELK3, 0.747; in the experiment with SPIC, 0.856; in the experiment with ETS2, 0.799; with ETV3 it was 0.803.
On the same counts, the results for AGGCGT are 0.523, 0.528, 0.539, 0.485 and 0.454.
With AGACAC, the binding signal stood at 0.813 with ELK1; 0.804 with ELK3; 0.716 in the experiment with SPIC; 0.808 with ETS2; 0.777 with ETV3.
On the same counts, the results for TCGGGC are 0.459, 0.521, 0.525, 0.498 and 0.556.
Turning to GCTGGG, the binding signal stood at 0.808 with ELK1; 0.84 in the experiment with ELK3; 0.685 in the experiment with SPIC; 0.879 with ETS2; 0.792 with ETV3.
On the same counts, the results for GCGGAG are 0.265, 0.293, 0.257, 0.25 and 0.276.
The corresponding values for GTGAGA are 0.313, 0.293, 0.253, 0.337 and 0.309.
Consider CAAAGG, for which the binding signal in the experiment with ELK1 stood at 0.827; with ELK3 it was 0.841; in the experiment with SPIC, 0.824; in the experiment with ETS2, 0.803; in the experiment with ETV3 it was 0.837.
With AGGTCG, the binding signal in the experiment with ELK1 worked out at 0.551; in the experiment with ELK3, 0.47; with SPIC it was 0.451; with ETS2, 0.523; in the experiment with ETV3, 0.539.
The corresponding values for GTACGG are 0.812, 0.818, 0.756, 0.81 and 0.849.
As for TGGAGA, the binding signal in the experiment with ELK1 came out at 0.366; in the experiment with ELK3, 0.424; with SPIC it was 0.48; in the experiment with ETS2, 0.417; with ETV3, 0.438.
Regarding AGCCAT, the binding signal was found to be 0.847 in the experiment with ELK1; 0.899 with ELK3; 0.859 with SPIC; 0.9 with ETS2; 0.852 with ETV3.
On the same counts, the results for CGGGTC are 0.668, 0.66, 0.715, 0.721 and 0.752.
Regarding CGGTGA, the binding signal in the experiment with ELK1 worked out at 0.443; in the experiment with ELK3 it was 0.435; with SPIC, 0.434; with ETS2, 0.471; with ETV3 it was 0.463.
On the same counts, the results for GGGGGA are 0.598, 0.599, 0.58, 0.561 and 0.554.
The corresponding values for AGGGTC are 0.837, 0.804, 0.874, 0.917 and 0.801.

(Values after PMC7862700.)
